From patent US4104397A, “Spiro (1,3-dioxolane-4,3') quinuclidine compounds” (The Purdue Frederick Company, priority 1975, dated 1978)

Test: LD50 in mice, Table 3
Conditions: mouse, in vivo, sc

Question: Which LD50 does the source give for `CN1[C@@H]2CC[C@H]1CC(OC(=O)C(CO)c1ccccc1)C2` (stereo partly shown) [Atropine Sulphate, reference compound] here?
Answer: The LD50 was over 100 mg/kg.
